Earlier results, collected in patent publication US20090214598A1, “Monovalent and polyvalent synthetic polysaccharide antigens for immunological intervention in disease” (Eli Lilly and Company, priority 2005, published 2009).
For at least one compound, name, drawing or mass did not settle the structure.

Settings: literature reports (U.S. Pat. No. 4,395,399; Chedid 1983)

SMILES	inflammatory response as reported
CC(=O)NC1C(O)[C@H](O)[C@H](CO)O[C@H]1O[C@@H]1C(CO)O[C@H](O)C(NC(C)=O)[C@H]1O[C@H](C)C(=O)N[C@@H](C)C(=O)N[C@H](CCC(=O)O)C(N)=O (stereo partly drawn) [GMDP, N-acetylglucosaminyl-N-acetylmuramyl-L-alanyl-D-isoglutamine]	induce an inflammatory response
CC(=O)NC1C(O)[C@H](O)[C@H](CO)O[C@H]1O[C@@H]1C(CO)O[C@H](O)C(NC(C)=O)[C@H]1O[C@H](C)C(=O)N[C@@H](C)C(=O)N[C@H](CCC(=O)O)C(=O)O (stereo partly drawn) [GMDP-A, N-acetylglucosaminyl-N-acetylmuramyl-L-alanyl-D-glutamic acid]	induce an inflammatory response
